Laboratory results published in PMC6181440.
These are yes or no findings as the source states them, for the method shown. In cells and extracts the contact can be indirect. A yes stands for co-enrichment or nearness to the bait. Other partners may have been found.

Chains of the proteins cited; added tags and fusions are not shown. Lines headed by an entry give the natural chain unless they say otherwise; changes in a name come on top.
UniProt Q38C87: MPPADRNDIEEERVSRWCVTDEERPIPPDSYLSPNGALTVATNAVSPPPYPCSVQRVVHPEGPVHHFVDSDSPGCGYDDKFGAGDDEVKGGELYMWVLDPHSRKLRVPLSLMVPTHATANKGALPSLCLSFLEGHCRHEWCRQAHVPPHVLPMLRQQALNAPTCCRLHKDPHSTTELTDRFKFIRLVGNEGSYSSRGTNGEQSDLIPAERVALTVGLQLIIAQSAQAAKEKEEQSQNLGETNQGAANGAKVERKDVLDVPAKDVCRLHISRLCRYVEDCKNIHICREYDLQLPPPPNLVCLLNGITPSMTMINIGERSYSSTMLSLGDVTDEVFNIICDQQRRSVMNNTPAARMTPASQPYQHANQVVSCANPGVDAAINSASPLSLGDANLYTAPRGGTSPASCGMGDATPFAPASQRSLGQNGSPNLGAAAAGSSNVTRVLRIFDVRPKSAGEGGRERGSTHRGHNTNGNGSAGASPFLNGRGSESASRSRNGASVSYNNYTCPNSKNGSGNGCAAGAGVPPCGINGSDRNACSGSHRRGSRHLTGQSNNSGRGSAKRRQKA
UniProt Q581A2: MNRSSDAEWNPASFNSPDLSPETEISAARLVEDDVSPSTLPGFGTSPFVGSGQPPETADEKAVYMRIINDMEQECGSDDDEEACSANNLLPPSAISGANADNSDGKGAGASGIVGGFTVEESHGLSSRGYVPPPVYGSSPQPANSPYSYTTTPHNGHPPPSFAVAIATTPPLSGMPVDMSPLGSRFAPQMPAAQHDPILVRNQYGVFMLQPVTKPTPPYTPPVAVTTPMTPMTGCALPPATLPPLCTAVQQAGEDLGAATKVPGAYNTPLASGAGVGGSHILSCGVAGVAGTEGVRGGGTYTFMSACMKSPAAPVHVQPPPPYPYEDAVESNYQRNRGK

Biological target: TAP-ZC3H30 (Trypanosoma brucei) (UniProt Q38C87)
Assay: affinity purification with mass spectrometry; tandem affinity purification of TAP-ZC3H30 from about 10^10 procyclic-form trypanosomes; three purifications with 200 ug/mL RNase A in lysis and wash buffers, three without; eluates analysed by tandem mass spectrometry

binding: binds
Substance: protein encoded by Tb927.8.3820 (from UniProt Q581A2)
